18 compounds from the supplement of paper PMC12009310 can be followed below.

Structures can show the parent of a compound that is named as a salt. ± gives the standard deviation of the averaged measurements. The list shows a part of the results. Part of the spread comes from offsets between plates or batches.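 The cells are a mouse kidney inner medullary collecting duct line, silenced either for the ciliary gene Rpgrip1l or with a non-targeting control siRNA.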

In experiment [1] the test system is mIMCD3. Nature of the experiment: robust z score of cell number vs plate controls; higher = more cells (less cytotoxic). The following applies: 10 µM, 48 h.
For experiment [2], the system named is mIMCD3. Nature of the experiment: robust z score of cilia incidence (% cells with single cilium) vs plate controls; higher = more ciliated cells. The following applies: 10 µM; 48 h; siRNA: siScr.
Experiment [3] concerns mIMCD3. In words: robust z score of cilia incidence (% cells with single cilium) vs plate controls; higher = more ciliated cells (rescue of cilia loss). Particulars: 10 µM; 48 h; siRNA: siRpgrip1l.

For `Cc1ccc(/C(=C\CN2CCCC2)c2ccccn2)cc1` [trans-Triprolidine hydrochloride], the “robust z score of cell number” value was found to be 15 ± 8.8 with mIMCD3 [1] (siRNA: siRpgrip1l) and 17 ± 19 with mIMCD3 [1] (siRNA: siScr). The “robust z score of cilia incidence” value in the experiment on mIMCD3 [2] is -2.68 ± 1.3; in the experiment on mIMCD3 [3], -16.2 ± 1.6.

As for `CCOC(=O)[C@H](CCc1ccccc1)N[C@@H](C)C(=O)N1Cc2cc(OC)c(OC)cc2C[C@H]1C(=O)O` [Moexipril hydrochloride], the “robust z score of cell number” value is -5.09 ± 3.1 with mIMCD3 [1] (siRNA: siRpgrip1l) and -0.536 ± 2.7 with mIMCD3 [1] (siRNA: siScr). Further, the results for the “robust z score of cilia incidence” value with mIMCD3 [2] and in the experiment with mIMCD3 [3] were 1.63 ± 2.1 and -5.26 ± 0.69, respectively.

For the compound `Oc1ccc(-c2nc3cc(O)cc(Br)c3o2)cc1`, the “robust z score of cell number” value in the experiment with mIMCD3 [1] (siRNA: siRpgrip1l) is -28.2 ± 28; in the experiment on mIMCD3 [1] (siRNA: siScr), -12.7 ± 10. In addition, the “robust z score of cilia incidence” value is -12.1 ± 1.7 in the experiment on mIMCD3 [2] and -6.37 ± 1.8 with mIMCD3 [3].

Take `OCC1OC(n2cnc3c(NC4CCCC4)nc(Cl)nc32)C(O)C1O` (configuration not stated) [2-Chloro-N6-cyclopentyladenosine]: the “robust z score of cell number” value in the experiment on mIMCD3 [1] (siRNA: siRpgrip1l) was -1.39 ± 0.94; in the experiment on mIMCD3 [1] (siRNA: siScr) it was -2.59 ± 0.93. Moreover, the “robust z score of cilia incidence” value in the experiment on mIMCD3 [2] is -2.28 ± 1.3; in the experiment on mIMCD3 [3], -19 ± 9.7.

As for `CNc1cc2c(Nc3cccc(Br)c3)ncnc2cn1`, the “robust z score of cell number” value is -18.7 ± 4.5 with mIMCD3 [1] (siRNA: siRpgrip1l) and -95.9 ± 81 with mIMCD3 [1] (siRNA: siScr). Also, the “robust z score of cilia incidence” value in the experiment with mIMCD3 [2] was -8.01 ± 2; in the experiment with mIMCD3 [3] it was -19.6 ± 4.8.

For `Cc1ccc([N+](=O)[O-])cc1S(=O)(=O)N(C)C`, the “robust z score of cell number” value in the experiment on mIMCD3 [1] (siRNA: siRpgrip1l) was -2.3 ± 2.8; in the experiment on mIMCD3 [1] (siRNA: siScr) it was -0.00928 ± 1.4. In addition, the results for the “robust z score of cilia incidence” value with mIMCD3 [2] and with mIMCD3 [3] were -2.34 ± 4.1 and -10.4 ± 4.1, respectively.

Turning to `O=C(O)c1c(Sc2ccccc2)c2cc(Cl)ccc2n1Cc1ccc(Cl)cc1`, the “robust z score of cell number” value in the experiment with mIMCD3 [1] (siRNA: siRpgrip1l) is -1.82 ± 2.1; in the experiment with mIMCD3 [1] (siRNA: siScr) it was -0.205 ± 2. The results for the “robust z score of cilia incidence” value in the experiment on mIMCD3 [2] and in the experiment on mIMCD3 [3] were -0.83 ± 0.37 and -15.7 ± 9.2, respectively.

Consider `N=C(N)SCCc1c[nH]cn1` [Imetit dihydrobromide], for which the “robust z score of cell number” value in the experiment on mIMCD3 [1] (siRNA: siRpgrip1l) was -1.86 ± 1.5; with mIMCD3 [1] (siRNA: siScr), -1.19 ± 2.5. Also, the “robust z score of cilia incidence” value in the experiment with mIMCD3 [2] is 1.37 ± 0.37; in the experiment with mIMCD3 [3], -7.78 ± 0.35.

For `CN1CCN(C(=O)c2nc3ccc(Cl)cc3[nH]2)CC1`, the “robust z score of cell number” value is -3.97 ± 2.4 in the experiment on mIMCD3 [1] (siRNA: siRpgrip1l) and -3.07 ± 1.9 in the experiment with mIMCD3 [1] (siRNA: siScr). The results for the “robust z score of cilia incidence” value with mIMCD3 [2] and in the experiment with mIMCD3 [3] were 0.348 ± 1.3 and -9.95 ± 6.4, respectively.

As for `Cn1ccc2cc3c(cc21)CCN3C(=O)Nc1cccnc1`, the “robust z score of cell number” value with mIMCD3 [1] (siRNA: siRpgrip1l) was -9.4 ± 14; with mIMCD3 [1] (siRNA: siScr), -4.51 ± 2.5. In addition, the “robust z score of cilia incidence” value in the experiment on mIMCD3 [2] was -1.93 ± 6.5; in the experiment on mIMCD3 [3], -119 ± 99.

Take `CNC(=O)[C@H]1O[C@@H](n2cnc3c(NCc4cccc(I)c4)ncnc32)[C@H](O)[C@@H]1O`: the “robust z score of cell number” value in the experiment with mIMCD3 [1] (siRNA: siRpgrip1l) is -11.8 ± 6.4; in the experiment with mIMCD3 [1] (siRNA: siScr), 0.108 ± 2.5. Besides, the “robust z score of cilia incidence” value in the experiment with mIMCD3 [2] was 0.442 ± 0.041; in the experiment with mIMCD3 [3], -19.5 ± 3.6.

Consider `Cc1cc(C)c(N(Cc2ccccc2)S(=O)(=O)c2ccc(OCCNC(=O)c3cc4ccccc4o3)cc2)c(C(=O)NO)c1`, for which the “robust z score of cell number” value in the experiment with mIMCD3 [1] (siRNA: siRpgrip1l) was -32 ± 9.8; in the experiment with mIMCD3 [1] (siRNA: siScr), -140 ± 110. The “robust z score of cilia incidence” value with mIMCD3 [2] was -31.8 ± 2.5; in the experiment on mIMCD3 [3], -37 ± 9.4.

Regarding `CC(O)(C(=O)Nc1ccc(S(=O)(=O)c2ccccc2)cc1)C(F)(F)F` (configuration not stated), the results for the “robust z score of cell number” value with mIMCD3 [1] (siRNA: siRpgrip1l) and with mIMCD3 [1] (siRNA: siScr) were -13.2 ± 2.9 and -10.4 ± 4.2, respectively. Moreover, the “robust z score of cilia incidence” value with mIMCD3 [2] was -10.3 ± 3.4; with mIMCD3 [3], -15.9 ± 5.7.

As to `COc1ccc([C@H]2CNC(=O)C2)cc1OC1CCCC1` [(S)-(+)-Rolipram], the “robust z score of cell number” value with mIMCD3 [1] (siRNA: siRpgrip1l) was -36.7 ± 36; in the experiment on mIMCD3 [1] (siRNA: siScr), 1.23 ± 1.6. Further, the “robust z score of cilia incidence” value in the experiment with mIMCD3 [2] was 1.26 ± 0.37; in the experiment with mIMCD3 [3] it was -10.5 ± 4.2.

For the compound `O=c1cc(N2CCOCC2)oc2c1ccc1ccccc12`, the “robust z score of cell number” value in the experiment on mIMCD3 [1] (siRNA: siRpgrip1l) is -19.4 ± 11; in the experiment on mIMCD3 [1] (siRNA: siScr), -19.8 ± 23. Also, the “robust z score of cilia incidence” value with mIMCD3 [2] is 1.09 ± 0.99; in the experiment with mIMCD3 [3], -5.26 ± 9.4.

On to `OCC(CO)N[C@H]1C[C@](O)(CO)[C@@H](O)[C@H](O)[C@H]1O` [Voglibose], for which the “robust z score of cell number” value with mIMCD3 [1] (siRNA: siRpgrip1l) is -24.4 ± 30; in the experiment on mIMCD3 [1] (siRNA: siScr), -3 ± 7.1. The entries for the “robust z score of cilia incidence” value in the experiment with mIMCD3 [2] and in the experiment with mIMCD3 [3] were -0.629 ± 1.2 and -7.42 ± 0.75, respectively.

Regarding `O=C(C=Cc1ccccc1)NC(NC(=S)Nc1ccc(Cl)cc1)C(Cl)(Cl)Cl` (configuration not stated), the “robust z score of cell number” value was -52.6 ± 53 with mIMCD3 [1] (siRNA: siRpgrip1l) and -26.9 ± 23 in the experiment on mIMCD3 [1] (siRNA: siScr). The “robust z score of cilia incidence” value with mIMCD3 [2] is -11.3 ± 0.98; in the experiment with mIMCD3 [3], -20.9 ± 8.7.

On to `NC(N)=NC(N)=Nc1cccc(Cl)c1` [m-Chlorophenylbiguanide hydrochloride], for which the “robust z score of cell number” value in the experiment on mIMCD3 [1] (siRNA: siRpgrip1l) is -36.4 ± 43; in the experiment on mIMCD3 [1] (siRNA: siScr) it was -14.5 ± 14. Moreover, the “robust z score of cilia incidence” value in the experiment with mIMCD3 [2] was 0.651 ± 3; in the experiment with mIMCD3 [3], -10.4 ± 12.
